According to article PMC10037874:
No constants are given. Whether binding was seen depends on the method and setting. Binding seen in cells or lysates may run through a third protein. Some binding calls cover weakened binding; strength is not graded here.

What was measured:
[1] = biological target: T1, F-box and leucine rich repeat protein 19 (mouse (endogenous in BALB/c lung tissue and MLE-12 cells)) (UniProt Q6PB97); test: co-IP; lysate of untreated MLE-12 cells in RIPA buffer; anti-FBXL19 (IgG as control) at 4 C overnight, protein A/G beads, Western blot
T1 sequence: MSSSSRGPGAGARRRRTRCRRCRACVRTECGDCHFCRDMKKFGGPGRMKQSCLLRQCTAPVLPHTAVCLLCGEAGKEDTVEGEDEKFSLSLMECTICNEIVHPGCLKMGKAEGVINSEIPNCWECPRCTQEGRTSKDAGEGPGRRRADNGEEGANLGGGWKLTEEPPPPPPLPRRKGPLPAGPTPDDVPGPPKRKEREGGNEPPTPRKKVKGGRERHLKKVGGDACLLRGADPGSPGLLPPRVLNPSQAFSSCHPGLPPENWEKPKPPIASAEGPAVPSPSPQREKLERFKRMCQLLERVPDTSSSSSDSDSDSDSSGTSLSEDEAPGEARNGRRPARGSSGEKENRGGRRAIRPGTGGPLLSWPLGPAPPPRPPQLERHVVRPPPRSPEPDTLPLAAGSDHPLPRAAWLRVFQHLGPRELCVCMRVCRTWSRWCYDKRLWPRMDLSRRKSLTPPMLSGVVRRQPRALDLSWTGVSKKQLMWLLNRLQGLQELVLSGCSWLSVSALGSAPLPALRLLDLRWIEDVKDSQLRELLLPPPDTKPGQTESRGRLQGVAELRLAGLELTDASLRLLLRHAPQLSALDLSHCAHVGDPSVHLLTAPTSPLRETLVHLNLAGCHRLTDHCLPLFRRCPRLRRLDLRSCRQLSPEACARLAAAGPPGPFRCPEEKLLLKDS

[2] = biological target: T1, F-box and leucine rich repeat protein 19 (mouse (endogenous in BALB/c lung tissue and MLE-12 cells)); test: co-IP; lysate of SPN mouse lung tissue in RIPA buffer; anti-FBXL19 (IgG as control) at 4 C overnight, protein A/G beads, Western blot

binding [1]: binds
binding [2]: binds
B1: forkhead box M1 (protein, UniProt O08696 1-760)
chain: MRTSPRRPLILKRRRLPLPVQNAPSETSEEEAKRSPAQPEPAPAQASQEVAESSSCKFPAGIKIINHPTTPNTQVVAIPSNADIQSIITALTAKGKESGTSGPNRFILISSGGPSSHPSQPQAHSSRDSKRAEVITETLGPKPAAKGVPVPKPPGAPPRQRQESYAGGEAAGCTLDNSLTNIQWLGKMSSDGLGPCSVKQELEEKENCHLEQNRVKVEEPSGVSTSWQDSVSERPPYSYMAMIQFAINSTERKRMTLKDIYTWIEDHFPYFKHIAKPGWKNSIRHNLSLHDMFVRETSANGKVSFWTIHPSANRHLTLDQVFKPLEPGSPQSPEHLESQQKRPNPELHRNVTIKTEIPLGARRKMKPLLPRVSSYLEPIQFPVNQSLVLQPSVKVPFRLAASLMSSELARHSKRVRIAPKVLLSSEGIAPLPATEPPKEEKPLLGGEGLLPLLPIQSIKEEEMQPEEDIAHLERPIKVESPPLEEWPSPCASLKEELSNSWEDSSCSPTPKPKKSYCGLKSPTRCVSEMLVTKRREKREVSRSRRKQHLQPPCLDEPDLFFPEDSSTFRPAVELLAESSEPAPHLSCPQEEGGPFKTPIKETLPVSSTPSKSVLSRDPESWRLTPPAKVGGLDFSPVRTPQGAFGLLPDSLGLMELNTTPLKSGPLFDSPRELLNSEPFDLASDPFGSPPPPHVEGPKPGSPELQIPSLSANRSLTEGLVLDTMNDSLSKILLDISFPGLEEDPLGPDNINWSQFIPELR
